Assay results taken from PubChem BioAssay AID248 (DTP/NCI, 2004).
The list does not hold the whole screen: it is rich in T/C values a quarter to a half above the control, in often repeated tests (any T/C) and in doses without a T/C. Other doses and runs of a compound stand elsewhere. T/C gives the treated animals as a percentage of the vehicle group. Some doses have a count of surviving animals in place of a T/C: the source files T/C as zero there, which appears to mark a toxic dose or a test without result, not a measured value. Some doses without a T/C left all or most animals alive at the check, yet need not have been tolerated: survival well below the control is almost never listed, so the zero probably covers shortened survival too. Survivors were counted at the toxicity check, usually on the fifth day, unless a day is given; later deaths do not show. Schedule codes are those of the source, read here as Q, the interval in days (D) or hours (H), X, the number of doses. Some schedules carry Z or #; the key to these is not given. Where survival is the endpoint, the PubChem record calls one and a half times the control and up active, and a quarter to a half above the control has no call in these data; cut-offs in other NCI protocols can differ. Some entries were tested several times; the values are given in rising order. Some T/C values are followed by the survivors on the day toxicity was checked, most often the fifth; where none is given, no animal had died by that day.

System: L1210 leukemia ip in BDF1 mice, survival T/C
Assay: NCI In Vivo Anticancer Drug Screen. Data for tumor model L1210 Leukemia (intraperitoneal) in B6D2F1 (BDF1) mice
Conditions: T/C endpoint: mean survival time, higher T/C = longer survival
[1] = dose: 200.0 mg/kg/injection, schedule: Q04DX003 (ip), vehicle: saline with Tween-80
[2] = dose: 400.0 mg/kg/injection, schedule: Q04DX003 (ip), vehicle: saline with Tween-80
[3] = dose: 400.0 mg/kg/injection, schedule: Q01DX001 (ip), vehicle: saline with Tween-80
[4] = dose: 200.0 mg/kg/injection, schedule: Q01DX001 (ip), vehicle: saline
[5] = dose: 400.0 mg/kg/injection, schedule: Q01DX001 (ip), vehicle: saline
[6] = dose: 200.0 mg/kg/injection, schedule: Q01DX009 (ip), vehicle: saline

**Q.** With `CC(=O)Oc1cc2c(OC(C)=O)c(-c3c(C)cc4c(C(C)C)c(OC(C)=O)c(OC(C)=O)cc4c3OC(C)=O)c(C)cc2c(C(C)C)c1OC(C)=O` as the compound, how does the survivor count [1] read?
**A.** 6 of 6

**Q.** What about the survivor count [2] of the same compound?
**A.** 6 of 6

**Q.** How did the survivor count [3] turn out when `CC(C)(C)NC(=O)C(Cl)Cl` was run?
**A.** 3 of 6

**Q.** Which results are given for `Oc1ccc(Br)cc1/C=N/c1nc(-c2ccccc2)cs1.Oc1ccc(Br)cc1/C=N/c1nc(-c2ccccc2)cs1.[Zn]`?
**A.** survivor count [4]: 3 of 3; survivor count [5]: 3 of 3

**Q.** What does the source list for `C1CCCC(=[N+]2CCCC2)CCC1`?
**A.** survivor count [6]: 0 of 6; survivor count (dose: 400.0 mg/kg/injection, schedule: Q01DX009 (ip), vehicle: saline): 0 of 6

**Q.** For `CCN(C(C)=O)c1ccccc1C#N`, which survivor count (dose: 300.0 mg/kg/injection, schedule: Q01DX001 (ip), vehicle: saline) is on record?
**A.** 2 of 6

**Q.** Which survivor count [4] does the source give for `CC1(C)Oc2c(ccc(O)c2CN2CCCCC2)C2=C1CCCC2` here?
**A.** 3 of 6

**Q.** What about the survivor count [5] of the same compound?
**A.** 1 of 6

**Q.** `CN=C(N)c1ccc(N=C(N)c2ccc(N=C(N)c3ccc(NC(=O)c4ccc(C(=O)Nc5ccc(C(N)=Nc6ccc(C(N)=Nc7ccc(C(N)=NC)cc7)cc6)cc5)cc4)cc3)cc2)cc1` was tested. Which T/C (dose: 25.0 mg/kg/injection, schedule: Q01DX Z (ip), vehicle: water) did it give?
**A.** 125 % of control

**Q.** With `O=C1OC(=O)c2ccc(SCC(O)CCl)c3cccc1c23` (centres undefined) as the compound, how does the survivor count (dose: 200.0 mg/kg/injection, schedule: Q01DX009 (ip), vehicle: other) read?
**A.** 2 of 6

**Q.** And the survivor count (dose: 400.0 mg/kg/injection, schedule: Q01DX009 (ip), vehicle: other)?
**A.** 0 of 6

**Q.** `O=P(Cc1ccccc1)(C(O)c1ccccc1)C(O)c1ccccc1` (centres undefined) was tested. Which survivor count (dose: 400.0 mg/kg/injection, schedule: Q04DX003 (ip), vehicle: Klucel (hydroxypropylcellulose) (HPC)) did it give?
**A.** 6 of 6

**Q.** What does the source list for `O=C(Nc1ccc(NC(=O)Nc2cccc(C3=NCCN3)c2)cc1)Nc1cccc(C2=NCCN2)c1`?
**A.** T/C (dose: 30.0 mg/kg/injection, schedule: Q01DX Z (ip), vehicle: carboxymethylcellulose (CMC)): 145 % of control; T/C (dose: 60.0 mg/kg/injection, schedule: Q01DX006 (iv), vehicle: saline): 137 % of control [4 of 6 alive]; T/C (dose: 60.0 mg/kg/injection, schedule: Q01DX Z (ip), vehicle: carboxymethylcellulose (CMC)): 125 % of control; T/C (dose: 74.0 mg/kg/injection, schedule: Q01DX Z (ip), vehicle: carboxymethylcellulose (CMC)): 142 % of control; T/C (dose: 110.0 mg/kg/injection, schedule: Q07DX Z (ip), vehicle: saline): 141 % of control; T/C (dose: 120.0 mg/kg/injection, schedule: Q01DX Z (ip), vehicle: carboxymethylcellulose (CMC)): 132 % of control; T/C (dose: 240.0 mg/kg/injection, schedule: Q01DX Z (im), vehicle: saline): 147 % of control; T/C (dose: 240.0 mg/kg/injection, schedule: Q01DX Z (ip), vehicle: carboxymethylcellulose (CMC)): 130 % of control; T/C (dose: 240.0 mg/kg/injection, schedule: Q01DX Z (sc), vehicle: carboxymethylcellulose (CMC)): 132 % of control; T/C (dose: 480.0 mg/kg/injection, schedule: Q01DX Z (sc), vehicle: carboxymethylcellulose (CMC)): 130 % of control

**Q.** Which survivor count [3] does the source give for `O=C(OCC1OCC(OC(=O)c2ccccc2)C1OC(=O)c1ccccc1)c1ccccc1` (centres undefined) here?
**A.** 3 of 3

**Q.** How did the survivor count (dose: 50.0 mg/kg/injection, schedule: Q01DX009 (ip), vehicle: saline with Tween-80) turn out when `CC1CCC2(NC1)OC1CC3C4CCC5CC(OC6OC(CO)C(OC7OC(CO)C(O)C(OC8OCC(O)C(O)C8O)C7OC7OC(CO)C(O)C(O)C7O)C(O)C6O)CCC5(C)C4CCC3(C)C1C2C` (centres undefined) was run?
**A.** 3 of 3

**Q.** What about the survivor count (dose: 100.0 mg/kg/injection, schedule: Q01DX009 (ip), vehicle: saline with Tween-80) of the same compound?
**A.** 0 of 3

**Q.** And the survivor count (dose: 200.0 mg/kg/injection, schedule: Q01DX009 (ip), vehicle: saline with Tween-80)?
**A.** 0 of 3

**Q.** How did the survivor count (dose: 25.0 mg/kg/injection, schedule: Q04DX003 (ip), vehicle: saline with Tween-80) turn out when `C[C@@H]1CN1C1=CC(=O)C(N2C[C@H]2C)=CC1=O` was run?
**A.** 6 of 6

**Q.** What about the survivor count (dose: 100.0 mg/kg/injection, schedule: Q04DX003 (ip), vehicle: saline with Tween-80) of the same compound?
**A.** 0 of 6

**Q.** And the survivor count [1]?
**A.** 0 of 6

**Q.** And the survivor count [2]?
**A.** 0 of 6

**Q.** `CC[CH2][Ge]([CH2]CC)([CH2]CC)[O][Ge]([CH2]CC)([CH2]CC)[CH2]CC` was tested. Which survivor count [5] did it give?
**A.** 1 of 4

**Q.** Which results are given for `O=C(Nc1ccc(C(=O)Nc2ccc(C3=NCCN3)cc2)cc1)Nc1ccc(C2=NCCN2)cc1`?
**A.** T/C (dose: 15.0 mg/kg/injection, schedule: Q01DX Z (ip), vehicle: carboxymethylcellulose (CMC)): 140 % of control; T/C (dose: 15.0 mg/kg/injection, schedule: Q01DX Z (ip), vehicle: saline): 128 % of control; T/C (dose: 120.0 mg/kg/injection, schedule: Q01DX Z (sc), vehicle: saline): 125 % of control; survivor count (dose: 240.0 mg/kg/injection, schedule: Q01DX Z (ip), vehicle: saline): 2 of 6; survivor count (dose: 480.0 mg/kg/injection, schedule: Q01DX Z (ip), vehicle: saline): 0 of 6; T/C (dose: 480.0 mg/kg/injection, schedule: Q01DX Z (sc), vehicle: saline): 139 and 142 % of control; T/C (dose: 960.0 mg/kg/injection, schedule: Q01DX Z (sc), vehicle: saline): 132 % of control

**Q.** `CCCCCCCCCCCS(=O)(=O)C(CCOS(C)(=O)=O)COS(C)(=O)=O` (centres undefined) was tested. Which survivor count (dose: 400.0 mg/kg/injection, schedule: Q01DX009 (ip), vehicle: Klucel (hydroxypropylcellulose) (HPC)) did it give?
**A.** 3 of 6

**Q.** For `c1ccc([P+](c2ccccc2)(c2ccccc2)c2ccc(-c3ccc([P+](c4ccccc4)(c4ccccc4)c4ccccc4)cc3)cc2)cc1`, which survivor count (dose: 6.0 mg/kg/injection, schedule: Q01DX009 (ip), vehicle: Klucel (hydroxypropylcellulose) (HPC)) is on record?
**A.** 1 of 6

**Q.** And the survivor count (dose: 12.0 mg/kg/injection, schedule: Q01DX009 (ip), vehicle: Klucel (hydroxypropylcellulose) (HPC))?
**A.** 6 of 6

**Q.** And the survivor count (dose: 25.0 mg/kg/injection, schedule: Q01DX009 (ip), vehicle: Klucel (hydroxypropylcellulose) (HPC))?
**A.** 0 of 6

**Q.** What about the survivor count (dose: 50.0 mg/kg/injection, schedule: Q01DX009 (ip), vehicle: Klucel (hydroxypropylcellulose) (HPC)) of the same compound?
**A.** 0 of 6

**Q.** And the survivor count (dose: 100.0 mg/kg/injection, schedule: Q01DX009 (ip), vehicle: Klucel (hydroxypropylcellulose) (HPC))?
**A.** 0 of 6

**Q.** What about the survivor count (dose: 200.0 mg/kg/injection, schedule: Q01DX009 (ip), vehicle: Klucel (hydroxypropylcellulose) (HPC)) of the same compound?
**A.** 0 of 6

**Q.** What about the survivor count (dose: 300.0 mg/kg/injection, schedule: Q01DX009 (ip), vehicle: Klucel (hydroxypropylcellulose) (HPC)) of the same compound?
**A.** 0 of 6

**Q.** With `CCN(CC)CCNc1ccc(CO)c(Cl)c1` as the compound, how does the survivor count (dose: 250.0 mg/kg/injection, schedule: Q01DX009 (ip), vehicle: Klucel (hydroxypropylcellulose) (HPC)) read?
**A.** 0 of 6

**Q.** How did the survivor count [4] turn out when `COC(=O)c1ccc(N(C)CCC(=O)CBr)cc1` was run?
**A.** 0 of 4

**Q.** And the survivor count [5]?
**A.** 0 of 4

**Q.** Which results are given for `Clc1nc(N2CC2)nc(N2CC2)n1`?
**A.** survivor count (dose: 30.0 mg/kg/injection, schedule: Q01DX001 (ip), vehicle: carboxymethylcellulose (CMC)): 2 of 6; survivor count (dose: 60.0 mg/kg/injection, schedule: Q01DX001 (ip), vehicle: carboxymethylcellulose (CMC)): 0 of 6; survivor count (dose: 75.0 mg/kg/injection, schedule: Q01DX001 (ip), vehicle: carboxymethylcellulose (CMC)): 1 of 6; survivor count (dose: 150.0 mg/kg/injection, schedule: Q01DX001 (ip), vehicle: carboxymethylcellulose (CMC)): 0 of 6; survivor count (dose: 300.0 mg/kg/injection, schedule: Q01DX001 (ip), vehicle: carboxymethylcellulose (CMC)): 0 of 6

**Q.** `C[n+]1ccn2ccccc21` was tested. Which survivor count (dose: 200.0 mg/kg/injection, schedule: Q01DX001 (ip), vehicle: saline with Tween-80) did it give?
**A.** 0 of 6

**Q.** Which survivor count (dose: 100.0 mg/kg/injection, schedule: Q01DX Z (ip), vehicle: steroid suspending solution) does the source give for `O=CC1CO1` (centres undefined) here?
**A.** 6 of 6

**Q.** For `O=C(/C(=C/c1ccc(Cl)cc1)c1ccccc1)c1ccc(O)cc1`, which survivor count (dose: 100.0 mg/kg/injection, schedule: Q01DX001 (ip), vehicle: saline) is on record?
**A.** 4 of 4

**Q.** For `NNP(=O)(Oc1ccccc1)Oc1ccccc1`, which survivor count [6] is on record?
**A.** 6 of 6

**Q.** `CCCC(C)C(=O)OCP(=O)(COC(=O)C(C)CCC)COC(=O)C(C)CCC` (centres undefined) was tested. Which survivor count [3] did it give?
**A.** 6 of 6

**Q.** Which T/C (dose: 200.0 mg/kg/injection, schedule: Q04DX002 (ip), vehicle: saline with Tween-80) does the source give for `CN(C)N=Nc1ccc(S(=O)(=O)Nc2ncccn2)cc1` here?
**A.** 125 % of control

**Q.** What about the T/C (dose: 264.0 mg/kg/injection, schedule: Q04DX003 (ip), vehicle: saline) of the same compound?
**A.** 145 % of control

**Q.** And the T/C (dose: 600.0 mg/kg/injection, schedule: Q04DX003 (ip), vehicle: saline with Tween-80)?
**A.** 132 % of control
